The other results are listed elsewhere or left out. Repeats are few or missing, and single values can be far off.

This assay deals with Saccharomyces cerevisiae BY4743. Put plainly: growth (OD600) relative to untreated control; higher = less growth inhibition. Particulars: compound concentration: 133 uM; 20 h. As for the experimental part: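 NMCCC compounds (133 uM, no IPBC) tested alone against Saccharomyces cerevisiae BY4743 in YPD, 96-well plates, starting OD600 ~0.1. Growth was read as OD600 at 20 h and expressed as % of the untreated control. Single pass.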
The molecule `COc1nc(NS(=O)(=O)c2ccc(C)cc2)nc(C)c1Cl` showed a growth of 98.7%.
Then `N#Cc1ccc(Oc2ccc(S(=O)(=O)N3CCOCC3)cn2)cc1`, with 105%; and `CC(=O)c1c(C)[nH]c(C(=O)OCC(=O)NCc2ccccc2Cl)c1C`, with 96.4%.
For `Cc1cc(F)ccc1-n1nnc(C(=O)OCc2ccc(F)cc2)c1C`, the growth worked out at 76.2%.
Then `Cc1cc(C)cc(NC(=O)CSc2nc(O)c3c(n2)CCCC3)c1`, with 101%; and `COc1ccc(CNC(=O)c2ccc(NS(=O)(=O)c3ccc(C(C)O)cc3)cc2)cc1OC` (centres undefined), with 103%.
The molecule `CCSc1nnc2c(=O)[nH]c(=O)[nH]c2n1` returned a growth of 92.6%.
The same measure for `CCC(=O)Nc1nc2ccc(NC(=O)Nc3ccccc3OC)cc2s1`: 101%; for `Cc1ccc(CNC(=O)Cc2cn3ccsc3n2)n1C`: 104%; for `N#Cc1ccccc1S(=O)(=O)N1CCN(C(=O)COc2ccccc2C(F)(F)F)CC1`: 95.8%.
`CCN(C(=O)c1cccc2c1SCCC2=O)c1cc(Cl)ccc1OC` displayed a growth of 111%.
Consider `CC(=O)c1ccc(S(=O)(=O)N(C)CC(=O)Nc2ncccc2C)cc1`, for which the growth amounted to 99.8%.
With `CCC1=CC=C(NC(=O)CN2\C=C/N(C(=O)C2=O)C3=CC(=CC(=C3)C)C)C=C1`, the growth was determined as 89.5%.
Molecule `Cc1cc(C)c2c(N)c(-c3ccccn3)sc2n1` registered a growth of 95.4%.
The same measure for `COC(=O)c1cccc2c1CCCN2Cc1ncc(C(C)(C)C)o1`: 105%.
Turning to `CCCCN1\N=C(/C=C\C1=O)C(=O)NC2=CC=C(C=C2)[S](=O)(=O)N(C)CC3=CC=CC=C3`, the growth amounted to 72.2%.
For `Cc1ccc(-c2cnoc2NC(=O)CSC(C)C)cc1`, the growth stood at 102%.
Then `CCC(C(=O)Nc1nnc(CCc2ccc(OC)cc2)s1)c1ccccc1` (centres undefined), with 83.1%; and `CCCN(CCC)C(=O)c1oc2ccccc2c1NC(=O)c1ccco1`, with 99.4%; and `Cc1cccc(NC(=O)CCSc2nc3nc(C)ccc3o2)c1`, with 106%.
Then `CCc1nnc(NC(=O)C(=O)c2cc(C)n(-c3ccc(F)cc3)c2C)s1`, with 97%.
The same measure for `CC(C)(C)Nc1nnc(SCc2nc(Cc3ccccc3)no2)s1`: 101%.
As to `Cc1ccc2cc(CN(CC(C)C)C(=O)c3ccco3)c(O)nc2c1`, the growth was found to be 109%.
Take `CC(C)[C@H](NS(=O)(=O)c1ccc2c(c1)OCCO2)C(=O)NC1CCCCCC1`: the growth stood at 93.7%.
The same measure for `O=C(CCSc1nnc(Nc2ccccc2F)s1)Nc1ccccc1F`: 80.1%; for `CCN(CC)[S](=O)(=O)C1=CC=C(C=C1)C(=O)N\C2=C(/C(C)C)N(C)N(C2=O)C3=CC=CC=C3`: 107%.
The same measure for `CCOC(=O)c1cn(Cc2ccccc2)nc1-c1ccccc1OC`: 87.3%.
The same measure for `COc1cc(OC)c(C(=O)Nc2ccc3c(c2)NC(=O)C(C)O3)cc1OC` (centres undefined): 105%.
As for `CC(C)C(CNS(=O)(=O)c1ccc2c(c1)CCCC2)N1CCOCC1` (centres undefined), the growth came to 113%.
`COC(=O)c1cc(S(=O)(=O)N2CCN(C3CCCCC3)CC2)c[nH]1` registered a growth of 86.7%.
The same measure for `CCN1CCC(N(Cc2cccc(OC)c2)C(=O)Nc2cc(F)ccc2F)CC1`: 106%.
Molecule `Nc1cn(-c2ccccc2)nc1-c1ccc(Cl)cc1` registered a growth of 104%.
`CC(=O)N1\N=C(/OC12CCCC2)C3=CC=C(C=C3)C(C)(C)C`: the growth turned out to be 110%.
Then `COCCN1\C=C/C2=C(OCC(=O)NC3=CC=C(Br)C=C3)C=CC=C2C1=O`, with 90%; and `COc1ccccc1CNc1sc(S(C)(=O)=O)nc1S(=O)(=O)c1ccc(C)cc1`, with 89%.
The same measure for `CC(C)CNC(=O)c1cc(-c2ccc(Cl)c(Cl)c2)on1`: 97.7%.
`CCOC(=O)c1ccc(NC(NC(=O)OC)(c2ccccc2)C(F)(F)F)o1` (centres undefined): the growth came to 108%.
The same measure for `Cc1ccc(S(=O)(=O)N(Cc2nc(-c3ccccc3)no2)C(C)C)cc1`: 67.4%; for `CN1\C=C/C(=C\C1=O)C(=O)NCC2=CC=CC=C2OC(F)(F)F`: 103%.

The values are drawn from the supplement of paper PMC8007513.
